Measurements: publication PMC12551112, “Exploration into the MLL4/WRAD Enzyme-Substrate Network: Systematic In Vitro Identification of CFP1 as a Potential Non-Histone Substrate of the MLL4 Lysine Methyltransferase” (Epigenomes, 2025)
Results are given in words; binding and its absence hold for the method and conditions named. Some entries that bind do so weakly or less than the wild type.

Chains of the proteins cited; added tags and fusions are not shown. Residues count along the entry.
CFP1 K331me2 peptide (Q9P0U4, residues 321-341): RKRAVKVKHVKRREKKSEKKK
CFP1 K339me2 peptide (Q9P0U4, residues 329-349): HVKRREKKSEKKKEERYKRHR
UniProt O14686, residues 156-341: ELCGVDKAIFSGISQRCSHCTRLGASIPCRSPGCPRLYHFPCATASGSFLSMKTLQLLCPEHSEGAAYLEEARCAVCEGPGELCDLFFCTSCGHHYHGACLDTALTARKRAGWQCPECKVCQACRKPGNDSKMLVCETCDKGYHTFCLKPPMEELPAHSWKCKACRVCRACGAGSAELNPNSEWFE

How the values were obtained:
Experiment in all cases: peptide or protein array; SPOT peptides on cellulose membrane; 1 μM 6xHis-tagged MLL4 PHD cassette in TBS-T overnight at 4 °C; probed with anti-6xHis-HRP, chemiluminescence; signals relative to the H4K20me0 peptide (100%), spots of at least 50% taken as candidate binders; both purified
[1] = target: CFP1 K331me3 peptide (human) (UniProt Q9P0U4)
[2] = target: CFP1 K339me3 peptide (human) (UniProt Q9P0U4)
[3] = target: CFP1 K339me2 peptide (human) (UniProt Q9P0U4)
[4] = target: CFP1 K331me2 peptide (human) (UniProt Q9P0U4)

Measured: binding

MLL4 PHD1–3 (residues 156–341) (from UniProt O14686 156-341) (domain or fragment)
binds weakly: all assays above
